Test results: patent US20060029544A1, “Receptor-binding cyclic peptides and methods of use” (The Regents of the University of California Office of …, priority 2004, published 2006)
For some of these results: Not every detail of the peptide structures is certain; ends, links or a residue may be inferred. Some of these results come from one statement about several compounds together.

Chains of the proteins cited; added tags and fusions are not shown. Residues count along the entry.
UniProt P08648, 42-995 limits assumed: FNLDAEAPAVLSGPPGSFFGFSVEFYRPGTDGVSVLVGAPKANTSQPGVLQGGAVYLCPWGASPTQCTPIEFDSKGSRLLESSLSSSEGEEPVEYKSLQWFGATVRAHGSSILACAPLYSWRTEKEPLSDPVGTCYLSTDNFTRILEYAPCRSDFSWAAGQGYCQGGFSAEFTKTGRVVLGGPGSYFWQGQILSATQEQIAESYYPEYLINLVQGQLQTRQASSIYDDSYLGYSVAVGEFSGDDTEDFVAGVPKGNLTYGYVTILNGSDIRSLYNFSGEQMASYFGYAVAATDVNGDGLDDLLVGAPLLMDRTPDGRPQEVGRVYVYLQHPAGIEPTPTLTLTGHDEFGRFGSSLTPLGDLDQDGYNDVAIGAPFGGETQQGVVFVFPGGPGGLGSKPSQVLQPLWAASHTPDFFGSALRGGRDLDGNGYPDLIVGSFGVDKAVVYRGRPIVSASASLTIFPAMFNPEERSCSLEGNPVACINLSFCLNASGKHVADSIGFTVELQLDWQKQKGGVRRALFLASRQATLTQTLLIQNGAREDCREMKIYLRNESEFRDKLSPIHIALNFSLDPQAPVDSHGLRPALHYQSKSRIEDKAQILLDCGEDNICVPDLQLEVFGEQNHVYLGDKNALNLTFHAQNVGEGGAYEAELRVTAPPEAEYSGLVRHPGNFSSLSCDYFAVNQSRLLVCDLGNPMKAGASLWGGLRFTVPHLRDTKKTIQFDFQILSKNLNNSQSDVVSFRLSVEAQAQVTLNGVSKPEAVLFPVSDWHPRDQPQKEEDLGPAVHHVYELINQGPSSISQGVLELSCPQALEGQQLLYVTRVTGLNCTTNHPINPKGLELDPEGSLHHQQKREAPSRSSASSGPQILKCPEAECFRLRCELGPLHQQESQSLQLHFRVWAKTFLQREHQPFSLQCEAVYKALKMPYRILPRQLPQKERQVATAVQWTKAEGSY
UniProt P06756, 31-992 limits assumed: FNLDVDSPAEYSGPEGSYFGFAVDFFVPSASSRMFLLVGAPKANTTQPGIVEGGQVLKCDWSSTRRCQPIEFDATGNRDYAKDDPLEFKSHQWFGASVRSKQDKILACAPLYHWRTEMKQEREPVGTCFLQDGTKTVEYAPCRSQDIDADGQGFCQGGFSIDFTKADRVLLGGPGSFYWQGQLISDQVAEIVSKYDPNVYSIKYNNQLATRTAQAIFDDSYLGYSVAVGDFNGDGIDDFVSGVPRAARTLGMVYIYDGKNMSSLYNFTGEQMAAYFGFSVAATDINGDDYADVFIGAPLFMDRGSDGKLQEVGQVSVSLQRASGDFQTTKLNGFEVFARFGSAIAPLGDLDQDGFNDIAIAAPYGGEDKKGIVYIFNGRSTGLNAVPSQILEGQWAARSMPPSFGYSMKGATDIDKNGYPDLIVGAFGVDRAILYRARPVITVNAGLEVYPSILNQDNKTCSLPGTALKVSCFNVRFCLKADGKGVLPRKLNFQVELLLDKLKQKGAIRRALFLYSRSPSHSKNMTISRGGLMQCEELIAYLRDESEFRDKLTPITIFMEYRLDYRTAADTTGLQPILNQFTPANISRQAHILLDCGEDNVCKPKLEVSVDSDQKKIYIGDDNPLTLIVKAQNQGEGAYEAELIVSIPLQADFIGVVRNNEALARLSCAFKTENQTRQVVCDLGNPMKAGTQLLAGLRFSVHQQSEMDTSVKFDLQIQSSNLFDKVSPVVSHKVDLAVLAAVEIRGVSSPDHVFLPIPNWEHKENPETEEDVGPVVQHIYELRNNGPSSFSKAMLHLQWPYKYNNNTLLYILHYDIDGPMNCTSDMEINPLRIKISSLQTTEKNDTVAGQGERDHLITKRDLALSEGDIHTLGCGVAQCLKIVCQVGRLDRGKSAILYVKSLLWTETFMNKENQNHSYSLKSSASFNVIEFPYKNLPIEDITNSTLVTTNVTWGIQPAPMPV
UniProt P18084, 24-719 limits assumed: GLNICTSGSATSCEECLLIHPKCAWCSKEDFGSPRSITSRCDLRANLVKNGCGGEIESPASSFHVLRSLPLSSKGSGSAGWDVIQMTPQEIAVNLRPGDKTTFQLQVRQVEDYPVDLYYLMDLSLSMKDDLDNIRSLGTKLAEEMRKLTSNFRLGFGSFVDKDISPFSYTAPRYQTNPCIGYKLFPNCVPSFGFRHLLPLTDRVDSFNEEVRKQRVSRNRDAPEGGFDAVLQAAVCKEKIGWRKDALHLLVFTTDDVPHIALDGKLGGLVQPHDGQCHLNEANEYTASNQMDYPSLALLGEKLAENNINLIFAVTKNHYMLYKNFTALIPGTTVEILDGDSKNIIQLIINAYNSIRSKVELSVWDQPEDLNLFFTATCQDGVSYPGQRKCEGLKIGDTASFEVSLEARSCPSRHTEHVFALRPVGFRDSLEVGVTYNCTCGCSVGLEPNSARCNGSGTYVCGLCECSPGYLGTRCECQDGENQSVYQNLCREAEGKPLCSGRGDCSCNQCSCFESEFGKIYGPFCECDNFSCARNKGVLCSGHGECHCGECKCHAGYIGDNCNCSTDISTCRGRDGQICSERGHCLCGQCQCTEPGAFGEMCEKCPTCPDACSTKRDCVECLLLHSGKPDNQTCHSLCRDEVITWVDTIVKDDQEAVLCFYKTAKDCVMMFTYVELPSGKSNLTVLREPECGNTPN
UniProt P05106, 27-718 limits assumed: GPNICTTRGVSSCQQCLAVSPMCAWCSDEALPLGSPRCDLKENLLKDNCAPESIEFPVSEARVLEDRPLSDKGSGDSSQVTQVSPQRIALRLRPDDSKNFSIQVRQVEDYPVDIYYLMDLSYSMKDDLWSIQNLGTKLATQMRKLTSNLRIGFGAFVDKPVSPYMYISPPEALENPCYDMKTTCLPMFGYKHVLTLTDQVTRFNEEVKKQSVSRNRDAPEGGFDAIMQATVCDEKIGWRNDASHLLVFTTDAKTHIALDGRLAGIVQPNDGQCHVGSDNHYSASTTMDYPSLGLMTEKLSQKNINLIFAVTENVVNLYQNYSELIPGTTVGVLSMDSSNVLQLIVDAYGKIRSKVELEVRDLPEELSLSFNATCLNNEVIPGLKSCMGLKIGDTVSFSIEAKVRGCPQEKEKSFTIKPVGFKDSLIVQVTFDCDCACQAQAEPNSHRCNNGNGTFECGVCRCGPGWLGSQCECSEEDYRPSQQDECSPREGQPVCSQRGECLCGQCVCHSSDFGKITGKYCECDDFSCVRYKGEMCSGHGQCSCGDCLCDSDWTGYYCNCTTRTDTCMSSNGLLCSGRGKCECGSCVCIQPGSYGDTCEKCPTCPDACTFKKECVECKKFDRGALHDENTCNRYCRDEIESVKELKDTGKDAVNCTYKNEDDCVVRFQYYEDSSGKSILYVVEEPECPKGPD
UniProt P08514, 32-993 limits assumed: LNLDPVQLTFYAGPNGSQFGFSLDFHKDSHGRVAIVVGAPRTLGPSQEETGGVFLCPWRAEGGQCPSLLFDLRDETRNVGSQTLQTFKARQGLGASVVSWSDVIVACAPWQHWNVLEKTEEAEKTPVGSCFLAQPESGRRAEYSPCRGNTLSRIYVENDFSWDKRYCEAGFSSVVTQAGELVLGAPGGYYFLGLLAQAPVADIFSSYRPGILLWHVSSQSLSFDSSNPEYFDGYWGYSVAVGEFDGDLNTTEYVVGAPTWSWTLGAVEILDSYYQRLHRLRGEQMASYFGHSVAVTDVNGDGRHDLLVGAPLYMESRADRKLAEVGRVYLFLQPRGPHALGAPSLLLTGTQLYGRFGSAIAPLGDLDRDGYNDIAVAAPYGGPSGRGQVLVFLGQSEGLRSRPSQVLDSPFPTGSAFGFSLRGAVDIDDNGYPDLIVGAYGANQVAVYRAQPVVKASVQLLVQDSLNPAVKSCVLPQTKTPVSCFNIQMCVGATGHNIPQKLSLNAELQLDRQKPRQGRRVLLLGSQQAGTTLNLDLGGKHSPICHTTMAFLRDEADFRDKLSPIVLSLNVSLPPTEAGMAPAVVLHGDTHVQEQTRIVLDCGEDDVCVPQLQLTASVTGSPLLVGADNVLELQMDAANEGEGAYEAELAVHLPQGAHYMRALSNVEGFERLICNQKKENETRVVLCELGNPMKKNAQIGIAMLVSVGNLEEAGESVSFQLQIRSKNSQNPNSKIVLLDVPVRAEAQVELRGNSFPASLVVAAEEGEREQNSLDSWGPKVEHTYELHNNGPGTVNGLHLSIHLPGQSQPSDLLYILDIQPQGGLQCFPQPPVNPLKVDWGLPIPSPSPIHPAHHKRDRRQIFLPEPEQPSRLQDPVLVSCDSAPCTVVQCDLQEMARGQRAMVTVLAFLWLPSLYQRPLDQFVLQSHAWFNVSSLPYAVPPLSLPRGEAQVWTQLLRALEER

Legend:
[1] = system: A375M melanoma cell line; test: Adhesion assay: [51Cr]-A375M cells to vitronectin; type: cell-based, human
Protocol: (§1) RGD peptides were plated at a maximum concentration of 200 μM and a minimum concentration of 2 nM. For each RGD peptide sequence, linear peptides (A), cyclic peptides (B), and 4-[^19F]-fluorobenzoyl cyclic peptides (C) were assayed. Each RGD peptide concentration was performed in quadruplicate and each experiment was repeated twice.
(§2) Plastic 96-well plates (Falcon 3912; Becton Dickinson) were coated with 50 μl substrate (10 μg/ml laminin or 5 μg/ml vitronectin). The plates were incubated at 37° C. in an 8% CO2 atmosphere for 1 hour. Unbound protein was flicked off and the plates were washed with phosphate buffered saline (PBS) and blocked with bovine serum albumin (0.1% w/v BSA)/PBS/0.1% sodium azide) for 1 hour. The plates were then washed with PBS, placed on a bed of ice and 25 μl of peptide was added to the wells.
Sodium [^51Cr] chromate was purchased from Amersham International, UK. The solution was made isotonic by the addition of 110 μl 10× Hanks buffered salt solution. 100 μl of this solution (3.7 MBq) was added to 5-10×10^6 cells in 500 μl of serum-containing growth medium. The suspension was incubated at 37° C. for 45 minutes with regular agitation to resuspend the cells. The cells were then washed and spun 3 times with serum-free E4 medium to remove any free [^51Cr]chromium. A trypan blue viability count was performed and the cells were diluted to the necessary volume in serum-free E4 medium (4×10^5 cells/ml).
(§3) 25 μl (about 10,000 cells) were added to each quadruplicate well and the plates incubated at 37° C. in an 8% CO2 atmosphere for 1 hour. Unbound cells were flicked off and the plates were washed twice with PBS/BSA containing 1 mM CaCl2 and 0.5 mM MgCl2. The plates were dabbed dry and cut into individual wells. The radioactivity associated with each well was determined in a gamma counter (1261 Multigamma; Wallac, Sweden). Quadruplicate 25 μl samples of labeled cells were counted as 100% input values. To determine non-specific binding, the ability of cells to bind BSA-coated wells was also assessed. […]
(§4) The results were calculated as follows: [formula] […]

[2] = system: A375M melanoma cell line; test: Adhesion assay: [51Cr]-A375M cells to laminin; type: cell-based, human
Protocol: as §1, §2
(§5) Sodium [^51Cr] chromate was purchased from Amersham International, UK. […]
as §3, with “Unbound cells were flicked off and the plates were washed twice with PBS/BSA containing 1 mM CaCl2 and 0.5 mM MgCl2. The plates were dabbed dry and cut into individual wells.” left out
as §4

[3] = system: VUP melanoma cell line; test: Adhesion assay: [51Cr]-VUP cells to laminin; type: cell-based; details: highest concentration (200 μM)
Protocol: as §1, §2, §5
as §3, with “Unbound cells were flicked off and the plates were washed twice with PBS/BSA containing 1 mM CaCl2 and 0.5 mM MgCl2. The plates were dabbed dry and cut into individual wells.” left out
as §4

[4] = system: VUP melanoma cell line; test: Adhesion assay: [51Cr]-VUP cells to vitronectin; type: cell-based; details: 20 μM peptide
Protocol: as §1, §2, §5
as §3, with “Unbound cells were flicked off and the plates were washed twice with PBS/BSA containing 1 mM CaCl2 and 0.5 mM MgCl2. The plates were dabbed dry and cut into individual wells.” left out
as §4

[5] = molecular target: T1, α5β1 integrin (Homo sapiens, UniProt P05556+P08648); test: ELISA: soluble α5β1-hFc binding to immobilized 50 kDa fibronectin fragment in the presence of RGD peptides; details: highest concentration (200 μM)
T1 construct: chimeras comprising the extracellular domain of αvβ3, αvβ5, α5β1, and αIIbβ3 linked to the Fc domain of either mouse IgG; purchased Celltech plc (supplied, no catalogue number)
Source text: (§6) Four different soluble integrins were supplied by Celltech plc. Soluble forms of αvβ3, αvβ5, α5β1, and αIIbβ3 integrin were generated by constructing chimeras comprising the extracellular domain of αvβ3, αvβ5, α5β1, and αIIbβ3 linked to the Fc domain of either mouse IgG (αvβ3-mFc, αvβ5-mFc, and αIIbβ3-mFc) or human IgG (α5β1-hFc) as described by Stephens et al., Cell Adhes. Commun., 7:377-390 (2000) and Coe et al., J. Biol. Chem., 276:35854-35866 (2001). Since the four soluble integrin chimeras were supplied either as purified proteins (αvβ3-mFc and α5β1-hFc) or as unpurified hybridoma supernatants (αIIbβ3-mFc and αvβ5-mFc), it was necessary to use two types of ELISAs. […] In one type of ELISA (FIGS. 2A and 2B), the immobilized component is a 50 kDa fragment of fibronectin. In the second type of ELISA (FIGS. 2C and 2D), the immobilized component is a goat anti-mFc antibody that is used to capture chimeric proteins so that the RGD binding site of the integrin is maximally exposed. Each three-sided box in FIG. 2 represents a single well of a 96-well plate, and the components are listed in the sequence of their addition to the assay. The immobilized component at the bottom of the well is bound to the well by electrostatic interactions. […]

[6] = molecular target: T2, αvβ5 integrin (Homo sapiens, UniProt P06756+P18084); test: ELISA: biotinylated vitronectin binding to captured soluble αvβ5-mFc in the presence of RGD peptides; details: highest concentration (200 μM)
T2 construct: chimeras comprising the extracellular domain of αvβ3, αvβ5, α5β1, and αIIbβ3 linked to the Fc domain of either mouse IgG; purchased Celltech plc (supplied, no catalogue number); host or cells: unpurified hybridoma / tissue culture supernatant from secreting cells
Source text: as §6

[7] = molecular target: T3, αIIbβ3 integrin (Homo sapiens, UniProt P05106+P08514); test: ELISA: biotinylated fibrinogen binding to captured soluble αIIbβ3-mFc in the presence of RGD peptides; details: 20 μM peptide
T3 construct: chimeras comprising the extracellular domain of αvβ3, αvβ5, α5β1, and αIIbβ3 linked to the Fc domain of either mouse IgG; purchased Celltech plc (supplied, no catalogue number); host or cells: unpurified hybridoma / tissue culture supernatant from secreting cells
Source text: (§7) Four different soluble integrins were supplied by Celltech plc. Soluble forms of αvβ3, αvβ5, α5β1, and αIIbβ3 integrin were generated by constructing chimeras comprising the extracellular domain of αvβ3, αvβ5, α5β1, and αIIbβ3 linked to the Fc domain of either mouse IgG (αvβ3-mFc, αvβ5-mFc, and αIIbβ3-mFc) or human IgG (α5β1-hFc) as described by Stephens et al., Cell Adhes. Commun., 7:377-390 (2000) and Coe et al., J. Biol. Chem., 276:35854-35866 (2001). Since the four soluble integrin chimeras were supplied either as purified proteins (αvβ3-mFc and α5β1-hFc) or as unpurified hybridoma supernatants (αIIbβ3-mFc and αvβ5-mFc), it was necessary to use two types of ELISAs. […] In one type of ELISA (FIGS. 2A and 2B), the immobilized component is a 50 kDa fragment of fibronectin. In the second type of ELISA (FIGS. 2C and 2D), the immobilized component is a goat anti-mFc antibody that is used to capture chimeric proteins so that the RGD binding site of the integrin is maximally exposed. Each three-sided box in FIG. 2 represents a single well of a 96-well plate, and the components are listed in the sequence of their addition to the assay. The immobilized component at the bottom of the well is bound to the well by electrostatic interactions.
(§8) The plates were washed with PBS using a Denley Wellwash 4 Mk 2. […] Plates were read using a plate spectrophotometer at 630 nm. […]

[8] = molecular target: T4, αvβ3 integrin (Homo sapiens, UniProt P05106+P06756); test: ELISA: soluble αvβ3-mFc binding to immobilized 50 kDa fibronectin fragment in the presence of RGD peptides; details: all concentrations (2, 20, 200 μM)
T4 construct: chimeras comprising the extracellular domain of αvβ3, αvβ5, α5β1, and αIIbβ3 linked to the Fc domain of either mouse IgG; purchased Celltech plc (supplied, no catalogue number)
Source text: as §7, §8

Row | Compound | adhesion of [51Cr]-A375M cells to vitronectin, normalized to absence of peptide (100%) ([1]; 20 μM peptide) | adhesion of [51Cr]-A375M cells to laminin, normalized to absence of peptide (100%) ([2]; 2 μM peptide) | adhesion of [51Cr]-VUP cells to laminin, normalized to absence of peptide (100%) [3] | adhesion of [51Cr]-VUP cells to vitronectin, normalized to absence of peptide (100%) [4] | adhesion of [51Cr]-A375M cells to vitronectin, normalized to absence of peptide (100%) ([1]; 200 nM peptide) | adhesion of [51Cr]-A375M cells to laminin, normalized to absence of peptide (100%) ([2]; 200 μM peptide) | inhibition of the interaction between α5β1 and fibronectin [5] | inhibition of the interaction between αvβ5 and vitronectin [6] | inhibition of the interaction between αIIbβ3 and fibrinogen [7] | inhibition of the interaction between αvβ3 and fibronectin [8]
1 | N=C(N)NCCC[C@@H]1NC(=O)[C@H](CCCCNC(=O)c2ccc(F)cc2)NC(=O)[C@@H](Cc2ccccc2)NC(=O)[C@H](CC(=O)O)NC(=O)CNC1=O [C10] | 13.89%±0.21% | 54.76%±1.072% | 66.83%±1.62% | 18.64%±1.23% |  |  |  |  |  | 
2 | COc1ccc(C[C@@H]2NC(=O)[C@H](CC(=O)O)NC(=O)CNC(=O)[C@H](CCCNC(=N)N)NC(=O)[C@H](CCCCNC(=O)c3ccc(F)cc3)NC2=O)cc1 [C7, 4-[^19F]-fluorobenzoyl cyclic (RGDY(OMe)K)] | 4.95±57% |  | 45.38%±1.97% | 5.95%±0.39% | 78.87%±2.71% | 39.81%±1.11% |  |  |  | 
3 | RGDY(OMe)K [A7] |  |  |  |  |  |  | less than 50% | greater than 50% | greater than 50% | greater than 50%
